In the supplement of paper PMC4604168 (melanoma cell lines):
The list shows a part of the results. Single values are uncertain, as repeats are few or missing.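 Cells were imaged in 1,536-well plates, and nuclei stained with an antibody against cleaved PARP were counted against all DNA-stained nuclei to give the apoptosis fraction. Screening doses were chosen to leave most cells alive, and resting and induced cleaved-PARP levels differ strongly between cell lines.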

What was measured:
Experiment in all cases: cleaved PARP positive nuclei fraction relative to DMSO control; melanoma cells; higher = more apoptosis
Conditions in all cases: library dose: low library concentration; 72 h
WM115 = system: WM115
WM1716 = system: WM1716
WM1745 = system: WM1745
WM3526 = system: WM3526
WM3619 = system: WM3619
WM451Lu = system: WM451Lu

Row | SMILES | cleaved PARP positive nuclei fraction (WM115) | cleaved PARP positive nuclei fraction (WM1716) | cleaved PARP positive nuclei fraction (WM1745) | cleaved PARP positive nuclei fraction (WM3526) | cleaved PARP positive nuclei fraction (WM3619) | cleaved PARP positive nuclei fraction (WM451Lu)
1 | N#CC[C@H](C1CCCC1)n1cc(-c2ncnc3[nH]ccc23)cn1 [ruxolitinib] + Cn1cncc1[C@@](N)(c1ccc(Cl)cc1)c1ccc2c(c1)c(-c1cccc(Cl)c1)cc(=O)n2C [tipifarnib] (first compound 1 µM, partner dose 0.01 µM) | 67.3% | 102% | 100% | 60.3% | 96.4% | 298%
2 | O=C(/C=C/c1cccnc1)NCCCCC1CCN(C(=O)c2ccccc2)CC1 + NC1(c2ccc(-c3nc4ccn5c(=O)[nH]nc5c4cc3-c3ccccc3)cc2)CCC1 [MK2206] (first compound 0.01 µM, partner dose 0.4 µM) | 99% | 22.6% | 112% | 255% | 124% | 77.9%
3 | O=c1[nH]nc(Sc2ncc([N+](=O)[O-])s2)n1-c1ccc2c(c1)OCCO2 + CC(C)CCN1c2nc(Nc3cc(F)c(O)c(F)c3)ncc2N(C)C(=O)C1C [BID1870] (first compound 0.2 µM, partner dose 0.2 µM) | 147% | 94.4% | 82% | 82.6% | 92.7% | 154%
4 | N#CC[C@H](C1CCCC1)n1cc(-c2ncnc3[nH]ccc23)cn1 [ruxolitinib] + NCC(=O)Nc1ccc(-n2nc(C(F)(F)F)cc2-c2ccc3c(ccc4ccccc43)c2)cc1 [OSU03012] (first compound 1 µM, partner dose 1 µM) | 46.7% | 64.2% | 91.6% | 45.3% | 86.5% | 199%
5 | N#CC[C@H](C1CCCC1)n1cc(-c2ncnc3[nH]ccc23)cn1 [ruxolitinib] + CC(=O)c1c(C)c2cnc(Nc3ccc(N4CCNCC4)cn3)nc2n(C2CCCC2)c1=O [palbociclib] (first compound 1 µM, partner dose 0.04 µM) | 162% | 130% | 113% | 123% | 119% | 304%
6 | Cc1cc(Nc2cc(N3CCN(C)CC3)nc(Sc3ccc(NC(=O)C4CC4)cc3)n2)n[nH]1 [Tozasertib] + O=C(Nc1cc(C(F)(F)F)cc(C(F)(F)F)c1)c1cc(Cl)ccc1O [IMD0354] (first compound 0.006 µM, partner dose 0.016 µM) | 18.9% | 159% | 100% | 104% | 109% | 94.9%
7 | O=C(Nc1cc(C(F)(F)F)cc(C(F)(F)F)c1)c1cc(Cl)ccc1O + CO[C@@H]1[C@H](N(C)C(=O)c2ccccc2)C[C@H]2O[C@]1(C)n1c3ccccc3c3c4c(c5c6ccccc6n2c5c31)C(=O)NC4 [Midostaurin] (first compound 0.016 µM, partner dose 0.08 µM) | 388% | 90.7% | 116% | 69.6% | 93.2% | 60.3%
8 | Cc1ccc(Nc2nccc(N(C)c3ccc4c(C)n(C)nc4c3)n2)cc1S(N)(=O)=O [Pazopanib] + C=CCNC1=C2C[C@@H](C)C[C@H](OC)[C@H](O)[C@@H](C)/C=C(\C)[C@H](OC(N)=O)[C@@H](OC)/C=C\C=C(/C)C(=O)NC(=CC1=O)C2=O [Tanespimycin] (first compound 0.4 µM, partner dose 0.002 µM) | 96.9% | 558% | 105% | 92.1% | 127% | 304%
9 | N#CC[C@H](C1CCCC1)n1cc(-c2ncnc3[nH]ccc23)cn1 [ruxolitinib] + CC1(C)NC(=O)N(c2ccc([N+](=O)[O-])c(C(F)(F)F)c2)C1=O [nilutamide] (first compound 1 µM, partner dose 1 µM) | 44.1% | 37.1% | 102% | 154% | 100% | 86.4%
10 | Cc1cn(-c2cc(NC(=O)c3ccc(C)c(Nc4nccc(-c5cccnc5)n4)c3)cc(C(F)(F)F)c2)cn1 [nilotinib] + Nc1ccn([C@@H]2O[C@H](CO)[C@@H](O)C2(F)F)c(=O)n1 [gemcitabine] (first compound 0.2 µM, partner dose 0.0004 µM) | 97.4% | 95.2% | 108% | 90.6% | 93.7% | 86.6%
11 | N#CC[C@H](C1CCCC1)n1cc(-c2ncnc3[nH]ccc23)cn1 [ruxolitinib] + COc1cc([C@@H]2c3cc4c(cc3[C@@H](O[C@@H]3O[C@@H]5CO[C@@H](C)O[C@H]5[C@H](O)[C@H]3O)[C@H]3COC(=O)[C@H]23)OCO4)cc(OC)c1O [etoposide] (first compound 1 µM, partner dose 0.02 µM) | 153% | 35.5% | 87.7% | 203% | 82.3% | 57.9%
12 | O=C(Nc1cc(C(F)(F)F)cc(C(F)(F)F)c1)c1cc(Cl)ccc1O + O=C(O)c1ccc(-c2c[nH]c3ncc(-c4ccccc4)cc23)cc1C1CCCC1 [GSK650394] (first compound 0.016 µM, partner dose 0.16 µM) | 77.1% | 59.2% | 80.4% | 107% | 98.2% | 107%
13 | O=C(/C=C/c1cccnc1)NCCCCC1CCN(C(=O)c2ccccc2)CC1 + C[C@@H]1CCN(C(=O)CC#N)C[C@@H]1N(C)c1ncnc2[nH]ccc12 [CP690550] (first compound 0.01 µM, partner dose 1 µM) | 104% | 123% | 103% | 70.7% | 127% | 160%
14 | O=C(/C=C/c1cccnc1)NCCCCC1CCN(C(=O)c2ccccc2)CC1 + Cc1ccc(NC(=O)c2cccc(N(C)C)c2)cc1NC(=O)c1ccc(O)cc1 [ZM336372] (first compound 0.01 µM, partner dose 2 µM) | 222% | 48.2% | 210% | 61.5% | 264% | 65.7%
15 | N#CC[C@H](C1CCCC1)n1cc(-c2ncnc3[nH]ccc23)cn1 [ruxolitinib] + CCN(CC)CCNC(=O)c1c(C)[nH]c(/C=C2\C(=O)Nc3ccc(F)cc32)c1C [sunitinib] (first compound 1 µM, partner dose 0.4 µM) | 22% | 63% | 95.9% | 351% | 74.8% | 70.8%
16 | Cc1cn(-c2cc(NC(=O)c3ccc(C)c(Nc4nccc(-c5cccnc5)n4)c3)cc(C(F)(F)F)c2)cn1 [nilotinib] + COc1cc2ncnc(Nc3ccc(Oc4ccccc4)cc3)c2cc1OC [SrcI1] (first compound 0.2 µM, partner dose 2 µM) | 170% | 149% | 99.6% | 123% | 97.8% | 89.6%
17 | O=C(/C=C/c1cccnc1)NCCCCC1CCN(C(=O)c2ccccc2)CC1 + O=C(Nc1ccccc1)c1cc([N+](=O)[O-])ccc1Cl [GW9662] (first compound 0.01 µM, partner dose 2 µM) | 37.3% | 54.2% | 80.5% | 137% | 147% | 59.3%
18 | Cc1cc(Nc2cc(N3CCN(C)CC3)nc(Sc3ccc(NC(=O)C4CC4)cc3)n2)n[nH]1 [Tozasertib] + O=C(Nc1ccccc1)c1cc([N+](=O)[O-])ccc1Cl [GW9662] (first compound 0.006 µM, partner dose 2 µM) | 128% | 53.3% | 97.3% | 294% | 84% | 112%
19 | Cc1cn(-c2cc(NC(=O)c3ccc(C)c(Nc4nccc(-c5cccnc5)n4)c3)cc(C(F)(F)F)c2)cn1 [nilotinib] + O=C(O)[C@@H]1[O][Sb](=[O])([O][Sb]2(=[O])[O][C@H]([C@H](O)CO)[C@H](O)[C@H](C(=O)O)[O]2)[O][C@H]([C@H](O)CO)[C@@H]1O [stibogluconate] (first compound 0.2 µM, partner dose 2 µM) | 117% | 35.7% | 106% | 72.5% | 93.6% | 41.4%
20 | O=C(Nc1cc(C(F)(F)F)cc(C(F)(F)F)c1)c1cc(Cl)ccc1O + Cc1nc(Nc2ncc(C(=O)Nc3c(C)cccc3Cl)s2)cc(N2CCN(CCO)CC2)n1 [dasatanib] (first compound 0.016 µM, partner dose 0.004 µM) | 85.7% | 106% | 145% | 33% | 99.1% | 20.8%
21 | CC[C@]1(O)C[C@H]2CN(CCc3c([nH]c4ccccc34)[C@@](C(=O)OC)(c3cc4c(cc3OC)N(C=O)[C@H]3[C@@](O)(C(=O)OC)[C@H](OC(C)=O)[C@]5(CC)C=CCN6CC[C@]43[C@@H]65)C2)C1 [vincristine] + CC(C)CCN1c2nc(Nc3cc(F)c(O)c(F)c3)ncc2N(C)C(=O)C1C [BID1870] (first compound 0.0001 µM, partner dose 0.2 µM) | 665% | 168% | 130% | 185% | 165% | 288%
22 | CC[C@]1(O)C[C@H]2CN(CCc3c([nH]c4ccccc34)[C@@](C(=O)OC)(c3cc4c(cc3OC)N(C=O)[C@H]3[C@@](O)(C(=O)OC)[C@H](OC(C)=O)[C@]5(CC)C=CCN6CC[C@]43[C@@H]65)C2)C1 [vincristine] + O=C(CCCCCCC(=O)Nc1ccccc1)NO [vorinostat] (first compound 0.0001 µM, partner dose 0.08 µM) | 234% | 180% | 84.9% | 59% | 140% | 106%
23 | Cc1cn(-c2cc(NC(=O)c3ccc(C)c(Nc4nccc(-c5cccnc5)n4)c3)cc(C(F)(F)F)c2)cn1 [nilotinib] + O=C(Nc1cccc(Cl)c1)Nc1ncc(CCNc2ncnc3ccsc23)s1 [SNS314] (first compound 0.2 µM, partner dose 0.0008 µM) | 87.8% | 136% | 113% | 32.3% | 105% | 100%
24 | O=c1[nH]nc(Sc2ncc([N+](=O)[O-])s2)n1-c1ccc2c(c1)OCCO2 + O=C(O)C(=O)Nc1sc2c(c1C(=O)O)CCNC2 [TCS401] (first compound 0.2 µM, partner dose 1.66667 µM) | 190% | 324% | 111% | 76% | 96.5% | 70.6%

Part of the list above with just cleaved PARP positive nuclei fraction (WM3619) and cleaved PARP positive nuclei fraction (WM451Lu):
Row | SMILES | cleaved PARP positive nuclei fraction (WM3619) | cleaved PARP positive nuclei fraction (WM451Lu)
17 | O=C(/C=C/c1cccnc1)NCCCCC1CCN(C(=O)c2ccccc2)CC1 + O=C(Nc1ccccc1)c1cc([N+](=O)[O-])ccc1Cl [GW9662] (first compound 0.01 µM, partner dose 2 µM) | 147% | 59.3%
18 | Cc1cc(Nc2cc(N3CCN(C)CC3)nc(Sc3ccc(NC(=O)C4CC4)cc3)n2)n[nH]1 [Tozasertib] + O=C(Nc1ccccc1)c1cc([N+](=O)[O-])ccc1Cl [GW9662] (first compound 0.006 µM, partner dose 2 µM) | 84% | 112%
